Test results published in patent US20100216853A1.
These are yes or no findings as the source states them, for the method shown. Binding seen in cells or lysates may run through a third protein. Some entries that bind do so weakly or less than the wild type.

Sequences of proteins named here, by UniProt entry; tags and fusion partners are left off. A change or cut given only in a name is not applied to a line headed by its entry.
UniProt Q09472: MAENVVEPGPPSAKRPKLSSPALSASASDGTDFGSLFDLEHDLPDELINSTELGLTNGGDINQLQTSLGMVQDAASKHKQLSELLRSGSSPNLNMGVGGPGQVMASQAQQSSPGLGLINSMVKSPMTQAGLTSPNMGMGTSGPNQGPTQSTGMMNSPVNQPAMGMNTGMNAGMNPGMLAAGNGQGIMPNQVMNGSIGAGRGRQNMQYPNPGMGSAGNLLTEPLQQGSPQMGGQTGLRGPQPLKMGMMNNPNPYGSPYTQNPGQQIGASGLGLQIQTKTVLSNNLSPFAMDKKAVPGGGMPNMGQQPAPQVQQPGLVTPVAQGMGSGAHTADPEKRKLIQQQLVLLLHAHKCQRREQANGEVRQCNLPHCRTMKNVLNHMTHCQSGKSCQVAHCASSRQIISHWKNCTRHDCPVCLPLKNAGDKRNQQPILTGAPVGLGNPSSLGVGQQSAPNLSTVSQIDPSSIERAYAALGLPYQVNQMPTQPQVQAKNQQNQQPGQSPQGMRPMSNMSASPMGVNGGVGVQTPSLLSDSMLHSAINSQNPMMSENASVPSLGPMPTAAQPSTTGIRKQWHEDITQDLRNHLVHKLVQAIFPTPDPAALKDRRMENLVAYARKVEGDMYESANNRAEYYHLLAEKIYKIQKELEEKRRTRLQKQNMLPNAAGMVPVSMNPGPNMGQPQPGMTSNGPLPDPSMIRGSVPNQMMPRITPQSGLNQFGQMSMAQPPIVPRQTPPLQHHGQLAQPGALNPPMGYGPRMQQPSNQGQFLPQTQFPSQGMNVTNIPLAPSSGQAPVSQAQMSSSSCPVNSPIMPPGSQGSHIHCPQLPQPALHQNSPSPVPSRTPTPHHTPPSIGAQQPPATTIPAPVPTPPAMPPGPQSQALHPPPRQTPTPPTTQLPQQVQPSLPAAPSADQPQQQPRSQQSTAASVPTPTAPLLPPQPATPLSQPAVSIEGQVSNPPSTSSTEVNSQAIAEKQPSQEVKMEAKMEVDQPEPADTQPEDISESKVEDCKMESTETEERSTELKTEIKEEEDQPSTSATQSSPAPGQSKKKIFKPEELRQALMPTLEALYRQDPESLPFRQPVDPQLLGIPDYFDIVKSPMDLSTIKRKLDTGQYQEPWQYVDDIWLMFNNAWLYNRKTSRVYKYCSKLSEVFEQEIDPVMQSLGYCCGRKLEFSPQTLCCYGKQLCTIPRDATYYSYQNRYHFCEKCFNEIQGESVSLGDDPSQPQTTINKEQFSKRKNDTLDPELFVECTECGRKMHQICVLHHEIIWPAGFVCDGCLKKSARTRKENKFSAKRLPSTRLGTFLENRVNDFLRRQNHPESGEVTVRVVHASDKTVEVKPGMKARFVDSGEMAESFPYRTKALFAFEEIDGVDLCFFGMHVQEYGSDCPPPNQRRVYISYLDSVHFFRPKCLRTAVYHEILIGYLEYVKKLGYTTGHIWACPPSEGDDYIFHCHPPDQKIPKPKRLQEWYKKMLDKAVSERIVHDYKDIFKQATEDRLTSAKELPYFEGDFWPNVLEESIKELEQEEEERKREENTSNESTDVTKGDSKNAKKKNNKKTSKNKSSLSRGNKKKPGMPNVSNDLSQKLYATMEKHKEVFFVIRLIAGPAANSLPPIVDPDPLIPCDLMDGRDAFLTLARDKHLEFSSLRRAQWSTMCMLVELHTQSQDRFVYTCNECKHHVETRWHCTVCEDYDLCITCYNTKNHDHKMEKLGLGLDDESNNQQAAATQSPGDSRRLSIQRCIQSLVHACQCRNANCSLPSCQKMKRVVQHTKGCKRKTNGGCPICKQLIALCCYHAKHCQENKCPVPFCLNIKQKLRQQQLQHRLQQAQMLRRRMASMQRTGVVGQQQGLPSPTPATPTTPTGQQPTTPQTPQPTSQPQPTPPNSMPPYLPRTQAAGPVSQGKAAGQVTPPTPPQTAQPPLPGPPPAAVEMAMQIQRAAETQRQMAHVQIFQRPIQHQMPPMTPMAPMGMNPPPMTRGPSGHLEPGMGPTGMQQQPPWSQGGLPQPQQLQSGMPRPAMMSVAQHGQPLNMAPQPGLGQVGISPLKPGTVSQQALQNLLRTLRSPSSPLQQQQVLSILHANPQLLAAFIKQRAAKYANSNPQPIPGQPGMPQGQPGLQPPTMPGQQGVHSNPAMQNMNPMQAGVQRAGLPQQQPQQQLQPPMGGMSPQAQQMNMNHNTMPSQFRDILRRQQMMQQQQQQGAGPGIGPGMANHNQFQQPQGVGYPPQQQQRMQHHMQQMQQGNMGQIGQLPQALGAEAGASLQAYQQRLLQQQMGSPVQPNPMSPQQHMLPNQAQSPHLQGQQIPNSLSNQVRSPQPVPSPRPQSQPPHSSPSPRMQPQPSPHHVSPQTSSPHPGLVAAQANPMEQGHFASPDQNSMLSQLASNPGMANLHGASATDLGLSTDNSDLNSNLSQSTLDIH

Experiments:
[1] = molecular target: p300 HAT domain C-terminal subdomain (about 11 kDa protease-resistant fragment) (human) (UniProt Q09472); experiment: co-purification of the heterodimeric p300 HAT complex in the presence of Lys-CoA
[2] = molecular target: p300 HAT domain C-terminal subdomain (about 11 kDa protease-resistant fragment) (human) (UniProt Q09472); experiment: co-purification and crystal structure, retold in Example 8
[3] = molecular target: p300 HAT domain C-terminal subdomain (about 11 kDa protease-resistant fragment) (human) (UniProt Q09472); experiment: co-purification and crystal structure, with Lys-CoA
[4] = molecular target: p300 HAT domain C-terminal subdomain (about 11 kDa protease-resistant fragment) (human) (UniProt Q09472); experiment: co-purification through two chromatographic separations

- binding [1]: binds
- binding [2]: binds
- binding [3]: binds
- binding [4]: binds
Substance: p300 HAT domain N-terminal subdomain (about 28 kDa protease-resistant fragment) (from UniProt Q09472 1287-1522) (enzyme)
